{
  "source": "patent US20110301099A1",
  "about": "“Method for enhancing penetration of lipid insoluble medicaments through cell membranes using small S-Allyl-containing molecules with phospholipid permeability as carrier molecules” (priority 2010, published 2011)",
  "settings": "same patient, control sites not previously treated with Allium sativum/1% xylocaine extract",
  "data": [
    {"compound": "CCN(CC)CC(=O)Nc1c(C)cccc1C", "note": "[1% xylocaine, xylocaine]", "values": [
      {"measurement": "pain and discomfort on subcutaneous injection", "result": "produced pain and discomfort"}
    ]}
  ]
}
